HELM strings list residues between dots; [ac] is acetyl, [am] amide, other brackets name non-standard units.
Test: general procedure: Boc solid-phase peptide synthesis; BOC-Phe esterified to 2% cross-linked polystyrene-divinylbenzene; dicyclohexylcarbodiimide with 1-hydroxybenzotriazole hydrate
Settings: whole synthesis; for final HPLC purity / final purity (method not given): scale of the general procedure 2 mmol; for final purity (method not given): TLC

Substance	final HPLC purity	final purity (method not given)	isolated mass (scale 1 mmole)
PEPTIDE1{[IVA].H.P.[BisHomoPhe].H.[Sta].L.F.[am]}$$$$V2.0	92%	90%	
PEPTIDE1{[IVA].H.P.[Hph].H.[Sta].L.F.[am]}$$$$V2.0	88%	90%	145 mg
